Reference: article PMC4055408
Results are given in words; binding and its absence hold for the method and conditions named. For some of these results: In cells and extracts the contact can be indirect.

Experiments:
[1] = biological target: TFII-I, endogenous (human (endogenous in 293T and U2OS)) (UniProt P78347); experiment: co-IP; U2OS cells, untreated or UV 60 J/m^2, fixed with 0.25% formaldehyde; anti-PCNA IP or anti-TFII-I IP; siControl or siTFII-I with Myc-TFII-I plasmids; cross-links reversed, immunoblot
[2] = biological target: TFII-I^270–667 fragment (human) (UniProt P78347); experiment: SEC; single purified TFII-I fragments fractionated on Superdex 200; apparent molecular mass against standards; monomer or homodimer; both purified
[3] = biological target: TFII-I Δ90 (TFII-I mutant protein lacking the first 90 residues) (human) (UniProt P78347); experiment: co-IP; HeLa Tet-On cells transfected with differentially tagged TFII-I plasmids; IgG IP and anti-Myc IP, immunoblot

| Binder | binding [1] | further results |
| --- | --- | --- |
| Pol ι, endogenous (enzyme, UniProt Q9UNA4 1-740) MEKLGVEPEEEGGGDDDEEDAEAWAMELADVGAAASSQGVHDQVLPTPNASSRVIVHVDLDCFYAQVEMISNPELKDKPLGVQQKYLVVTCNYEARKLGVKKLMNVRDAKEKCPQLVLVNGEDLTRYREMSYKVTELLEEFSPVVERLGFDENFVDLTEMVEKRLQQLQSDELSAVTVSGHVYNNQSINLLDVLHIRLLVGSQIAAEMREAMYNQLGLTGCAGVASNKLLAKLVSGVFKPNQQTVLLPESCQHLIHSLNHIKEIPGIGYKTAKCLEALGINSVRDLQTFSPKILEKELGISVAQRIQKLSFGEDNSPVILSGPPQSFSEEDSFKKCSSEVEAKNKIEELLASLLNRVCQDGRKPHTVRLIIRRYSSEKHYGRESRQCPIPSHVIQKLGTGNYDVMTPMVDILMKLFRNMVNVKMPFHLTLLSVCFCNLKALNTAKKGLIDYYLMPSLSTTSRSGKHSFKMKDTHMEDFPKDKETNRDFLPSGRIESTRTRESPLDTTNFSKEKDINEFPLCSLPEGVDQEVFKQLPVDIQEEILSGKSREKFQGKGSVSCPLHASRGVLSFFSKKQMQDIPINPRDHLSSSKQVSSVSPCEPGTSGFNSSSSSYMSSQKDYSYYLDNRLKDERISQGPKEPQGFHFTNSNPAVSAFHSFPNLQSEQLFSRNHTTDSHKQTVATDSHEGLTENREPDSVDEKITFPSDIDPQVFYELPEAVQKELLAEWKRAGSDFHIGHK | no binding |  |
| Pol η, endogenous (enzyme, UniProt Q9Y253 1-713) MATGQDRVVALVDMDCFFVQVEQRQNPHLRNKPCAVVQYKSWKGGGIIAVSYEARAFGVTRSMWADDAKKLCPDLLLAQVRESRGKANLTKYREASVEVMEIMSRFAVIERASIDEAYVDLTSAVQERLQKLQGQPISADLLPSTYIEGLPQGPTTAEETVQKEGMRKQGLFQWLDSLQIDNLTSPDLQLTVGAVIVEEMRAAIERETGFQCSAGISHNKVLAKLACGLNKPNRQTLVSHGSVPQLFSQMPIRKIRSLGGKLGASVIEILGIEYMGELTQFTESQLQSHFGEKNGSWLYAMCRGIEHDPVKPRQLPKTIGCSKNFPGKTALATREQVQWWLLQLAQELEERLTKDRNDNDRVATQLVVSIRVQGDKRLSSLRRCCALTRYDAHKMSHDAFTVIKNCNTSGIQTEWSPPLTMLFLCATKFSASAPSSSTDITSFLSSDPSSLPKVPVTSSEAKTQGSGPAVTATKKATTSLESFFQKAAERQKVKEASLSSLTAPTQAPMSNSPSKPSLPFQTSQSTGTEPFFKQKSLLLKQKQLNNSSVSSPQQNPWSNCKALPNSLPTEYPGCVPVCEGVSKLEESSKATPAEMDLAHNSQSMHASSASKSVLEVTQKATPNPSLLAAEDQVPCEKCGSLVPVWDMPEHMDYHFALELQKSFLQPHSSNPQVVSAVSHQGKRNPKSPLACTNKRPRPEGMQTLESFFKPLTH | no binding |  |
| TFII-I^270–667 fragment (domain or fragment, UniProt P78347 270-667) SKPLQGSHHSSEGNEGTEMEVPAEDSTQHVPSETSEDPEVEVTIEDDDYSPPSKRPKANELPQPPVPEPANAGKRKVREFNFEKWNARITDLRKQVEELFERKYAQAIKAKGPVTIPYPLFQSHVEDLYVEGLPEGIPFRRPSTYGIPRLERILLAKERIRFVIKKHELLNSTREDLQLDKPASGVKEEWYARITKLRKMVDQLFCKKFAEALGSTEAKAVPYQKFEAHPNDLYVEGLPENIPFRSPSWYGIPRLEKIIQVGNRIKFVIKRPELLTHSTTEVTQPRTNTPVKEDWNVRITKLRKQVEEIFNLKFAQALGLTEAVKVPYPVFESNPEFLYVEGLPEGIPFRSPTWFGIPRLERIVRGSNKIKFVVKKPELVISYLPPGMASKINTKALQ |  | binding [2]: no binding |
| TFII-I Δ90 (TFII-I mutant protein lacking the first 90 residues) (domain or fragment, UniProt P78347 91-998) HKMKSTTQANRMSVDAVEIETLRKTVEDYFCFCYGKALGKSTVVPVPYEKMLRDQSAVVVQGLPEGVAFKHPENYDLATLKWILENKAGISFIIKRPFLEPKKHVGGRVMVTDADRSILSPGGSCGPIKVKTEPTEDSGISLEMAAVTVKEESEDPDYYQYNIQAGPSETDDVDEKQPLSKPLQGSHHSSEGNEGTEMEVPAEDSTQHVPSETSEDPEVEVTIEDDDYSPPSKRPKANELPQPPVPEPANAGKRKVREFNFEKWNARITDLRKQVEELFERKYAQAIKAKGPVTIPYPLFQSHVEDLYVEGLPEGIPFRRPSTYGIPRLERILLAKERIRFVIKKHELLNSTREDLQLDKPASGVKEEWYARITKLRKMVDQLFCKKFAEALGSTEAKAVPYQKFEAHPNDLYVEGLPENIPFRSPSWYGIPRLEKIIQVGNRIKFVIKRPELLTHSTTEVTQPRTNTPVKEDWNVRITKLRKQVEEIFNLKFAQALGLTEAVKVPYPVFESNPEFLYVEGLPEGIPFRSPTWFGIPRLERIVRGSNKIKFVVKKPELVISYLPPGMASKINTKALQSPKRPRSPGSNSKVPEIEVTVEGPNNNNPQTSAVRTPTQTNGSNVPFKPRGREFSFEAWNAKITDLKQKVENLFNEKCGEALGLKQAVKVPFALFESFPEDFYVEGLPEGVPFRRPSTFGIPRLEKILRNKAKIKFIIKKPEMFETAIKESTSSKSPPRKINSSPNVNTTASGVEDLNIIQVTIPDDDNERLSKVEKARQLREQVNDLFSRKFGEAIGMGFPVKVPYRKITINPGCVVVDGMPPGVSFKAPSYLEISSMRRILDSAEFIKFTVIRPFPGLVINNQLVDQSESEGPVIQESAEPSQLEVPATEEIKETDGSSQIKQEPDPTW |  | binding [3]: no binding |
